The source of these data is publication PMC7532997, “Cytotoxic Constituents of the Bark of Hypericum roeperianum towards Multidrug-Resistant Cancer Cells” (Evidence-based Complementary and Alternative Medicine : eCAM, 2020).

The subject of the data set is CEM/ADR5000 leukemia cells (P-gp-overexpressing). Description: Resazurin reduction assay (RRA), 72 h. The format is cell-based. The conditions noted are these: IC50 CEM/ADR5000 divided by IC50 CCRF-CEM. The text has this: Cell lines used in this work included drug-sensitive and drug-resistant phenotypes of earlier reported origin. They were all provided by Prof. Dr. Thomas Efferth from his cell lines collection; they have being used in cytotoxicity screening by our team for a decade. These include two hematological cancer cell lines, namely, the drug-sensitive CCRF-CEM leukemia cell line and its multidrug-resistant P-gp-over-expressing subline CEM/ADR5000 cells and […] carcinoma cell lines, namely, U87.MG glioblastoma cell line and its EGFR-transfected U87.MGΔEGFR subline, HCT116 (p53^+/+) colon cancer cell line and its knockout clone HCT116 (p53^−/^−), and MDA-MB-231-pcDNA3 breast cancer cell line and its BCRP-transfected multidrug-resistant MDA-MB-231-BCRP clone 23 cell line, as well as the normal AML12 hepatocytes, used to compare with HepG2 liver cancer cells.
The RRA was applied to evaluate the cytotoxicity of botanicals, the isolated phytochemicals (1–5, 7, and 8), and doxorubicin on the cell growth as reported earlier. Cells treated with various samples at different concentrations were incubated for 72 h in humidified 5% CO2 atmosphere at 37°C. Cells were further coloured with resazurin and incubated for 1–2 h; the fluorescence was further measured with an Infinite M2000 Pro™ plate reader (Tecan, Crailsheim, Germany) at 544 nm as the excitation wavelength and 590 nm as the emission wavelength. The IC50 values represented the concentrations of the sample required to inhibit 50% of cell proliferation and were calculated from a calibration curve by linear regression using Microsoft Excel 2007 [29].
For `O=c1c2ccc(O)c(O)c2oc2cc(O)cc(O)c12` [Compound 5, 1,3,5,6-tetrahydroxyxanthone], the Degree of resistance is reported as 1.00.
For `COc1cc(C2Oc3ccc4c(=O)c5ccccc5oc4c3OC2CO)cc(OC)c1O` (stereo not drawn) [Compound 8, 3′-hydroxymethyl-2′-(4″-hydroxy-3″,5″-dimethoxyphenyl)-5′,6′:5,6-(xanthone)-1′,4′-dioxane] the value was 2.66.
`O=c1c2cc(O)c(O)cc2oc2cc(O)cc(O)c12` [Compound 4, 1,3,6,7-tetrahydroxyxanthone] displayed a Degree of resistance of 1.16.
As for `C[C@H]1C(=O)CC[C@@H]2[C@]1(C)CC[C@H]1[C@@]2(C)CC[C@@]2(C(=O)O)C3CC(C)(C)CC[C@]3(C)CC[C@]12C` (stereo partly drawn) [Compound 1, trichadonic acid], the figure is 1.26; as for `COc1cccc2c(=O)c3cc(O)ccc3oc12` [Compound 3, 2-hydroxy-5-methoxyxanthone], 3.15.
On to `COc1cc(C2Oc3ccc4c(=O)c5c(O)cc(O)cc5oc4c3OC2CO)cc(OC)c1O` (stereo not drawn) [Compound 7, 3′-hydroxymethyl-2′-(4″-hydroxy-3″,5″-dimethoxyphenyl)-5′,6′:5,6-(6,8-dihydroxyxanthone)-1′,4′-dioxane], for which the Degree of resistance was found to be 2.32.
